Data on 1 substance can be found in PMC10247384.

By UniProt entry, the sequences of proteins in these tests, tags left out. Where a name states a change or a piece, a line headed by the entry shows the natural chain unless it says otherwise.
UniProt Q9H6L5, whole entry: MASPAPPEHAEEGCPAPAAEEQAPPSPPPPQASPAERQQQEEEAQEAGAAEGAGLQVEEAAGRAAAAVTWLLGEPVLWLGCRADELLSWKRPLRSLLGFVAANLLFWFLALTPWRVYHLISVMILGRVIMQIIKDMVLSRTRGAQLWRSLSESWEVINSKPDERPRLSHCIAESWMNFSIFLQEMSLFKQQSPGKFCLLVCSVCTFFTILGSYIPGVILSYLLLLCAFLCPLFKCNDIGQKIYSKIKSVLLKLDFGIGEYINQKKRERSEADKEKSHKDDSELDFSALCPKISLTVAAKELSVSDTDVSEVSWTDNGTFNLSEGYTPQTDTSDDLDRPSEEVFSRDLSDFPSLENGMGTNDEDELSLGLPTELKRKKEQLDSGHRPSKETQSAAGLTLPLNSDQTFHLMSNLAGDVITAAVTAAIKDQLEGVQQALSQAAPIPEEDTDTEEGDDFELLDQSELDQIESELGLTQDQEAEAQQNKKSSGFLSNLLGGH

These are yes or no findings as the source states them, for the method shown. Binding seen in cells or lysates may run through a third protein. Some entries that bind do so weakly or less than the wild type.

This assay addresses haemagglutinin (HA)-tagged ARL6IP1 (UniProt Q15041). The assay is described as follows: co-IP; HEK293T cells transfected with HA-tagged ARL6IP1 or FAM134B constructs; WT and variant proteins pulled down, the endogenous binding partner detected by immunoblot. A general note: A western blot detects proteins with antibodies after separation by electrophoresis.

With “endogenous FAM134B (human cells) (from UniProt Q9H6L5 1-497)”, the binding entry is reported as “binds”.
